Measurements from patent US20260306460A1, “COMPOSITION FOR REMOVING AND INHIBITING SENESCENT CELLS, AND USES THEREOF” (LIFECEUTIX CO., LTD., priority 2023, published 2026).
The name of at least one read-out is uncertain. For some of these results: At least one compound was matched to its structure with a doubt left.

What follows are molecules tested on senescent human cells (assay: Senescent cell survival with supernatant from death-induced cells, Example 32, Table 58). Details: supernatants containing secretions from death-induced cells treated with test compound at high concentrations of 30 M and 90 μM, respectively.
Assay type: cell-based

In the case of Sulforadex [LX-7104], the “HMGN1 (cell viability results)” value is reported as 35.9 (±4.8).
With `O=C1C2=C(CCN(Cc3ccccc3)C2)N2CCN=C2N1Cc1ccc(C(F)(F)F)cc1` [LX-7263] the “HMGN1 (cell viability results)” value was 68.6 (±4.8).
For Tocofersolan [LX-3001], the “HMGN1 (cell viability results)” value was 45.4 (±3.3).

These molecules were tested on HMGN1 secreted from senescent human cells (assay: HMGN1 secretion (ELISA) from doxorubicin-induced senescent human cells, Example 11). Details: senescent untreated = 100%; 30 μM; 90 μM for LX-305, 1302, 1603, 2005, 2702, 2901, 3106; 270 μM for LX-1103, 2007.
Assay type: cell-based

Going from `CCc1nc(C(N)=O)c(Nc2ccc(N3CCC(N4CCN(C)CC4)CC3)c(OC)c2)nc1NC1CCOCC1` [LX-3303, Gilteritinib] to `Cc1n[nH]c(-c2cc(C(=O)N3CCC(c4ccc(C#N)cc4)CC3)c(C)cc2C2CCC2)n1` [LX-305], the HMGN1 falls from 275% to 199%.

Compared with `COC(=O)c1ccc([C@H]2c3[nH]c4ccccc4c3C[C@H](C(=O)OC)N2C(=O)CCl)cc1` [LX-405], `CC(=O)N[C@@H](Cc1c[nH]c2ccccc12)C(=O)N[C@@H](CCC(=O)C=[N+]=[N-])C(=O)OC(C)C` [LX-3201, Sirpiglenastat] is higher in HMGN1: 285% for the first, 286% for the second.

Compared with `CC1(C)C=C2[C@H]3CC[C@@H]4[C@@]5(C)CCC(=O)C(C)(C)[C@@H]5CC[C@@]4(C)[C@]3(C)CC[C@@]2(C(=O)O)CC1` [LX-2007, Moronic acid], `C=C(C)[C@@H]1CC[C@]2(C(=O)O)CC[C@]3(C)[C@H](CC[C@@H]4[C@@]5(C)CC[C@H](O)C(C)(C)[C@@H]5CC[C@]43C)[C@@H]12` [LX-2005, Betulinic acid] is lower in HMGN1: 255% for the first, 212% for the second.

Compared with `O=C(NCc1ccncc1)C12CC3CC(C1)CC(c1ccc(Cl)cc1)(C3)C2` [LX-3106, Opaganib], `O=C(O)c1cc(/N=N/c2ccc(S(=O)(=O)Nc3ccccn3)cc2)ccc1O` [LX-1302, Sulfasalazine] is lower in HMGN1: 254% for the first, 171% for the second.

First: CC/C=C\C/C=C\C/C=C\C/C=C\C/C=C\C/C=C\CCC(=O)O [LX-2702, Docosahexaenoic acid]
Second: CCN(CC)C(=S)SSC(=S)N(CC)CC [LX-1601, Disulfiram]
The HMGN1 of the first is higher: 206% for the first, 154% for the second.

First: Cc1oncc1C(=O)Nc1ccc(C(F)(F)F)cc1 [LX-1603, Leflunomide]
Second: CC(C)c1onc(C(=O)N2CCN(C(c3ccccc3)c3ccccc3)CC2)c1[N+](=O)[O-] [LX-401]
The HMGN1 of the first is lower: 168% for the first, 263% for the second.

First: CO[C@]1(C(=O)N[C@@H](C)c2ccc(-n3cc(F)cn3)nc2)CC[C@H](c2nc(C)cc(Nc3cc(C)[nH]n3)n2)CC1 [LX-1902, Pralsetinib]
Second: Fc1ccc(-n2cc(CCCCN3CCC4(CC3)OCc3ccccc34)c3ccccc32)cc1 [LX-1102, Siramesine]
The HMGN1 of the first is higher: 303% for the first, 271% for the second.

Going from `C[C@H]1[C@H](C)CC[C@]2(C(=O)O)CC[C@]3(C)C(=CC[C@@H]4[C@@]5(C)CC[C@H](O)C(C)(C)[C@@H]5CC[C@]43C)[C@H]12` [LX-2001, Ursolic acid] to `C[C@H](N)C(=O)N1C[C@H](CCCB(O)O)[C@](N)(C(=O)O)C1` [LX-3107, Numidargistat], the HMGN1 falls from 328% to 196%.
